Experimental data published in patent US20130074217A1 (NUTECH VENTURES, published 2013).
Results are given in words; binding and its absence hold for the method and conditions named. In cells and extracts the contact can be indirect. Some results given as binding are weak or reduced against the parent protein; the word gives no strength. Sequences can lack the tags named with a protein.

The chains behind the UniProt entries cited, without tags or fusion partners. Residues count along the entry.
UniProt Q9FL28, residues 24-1173: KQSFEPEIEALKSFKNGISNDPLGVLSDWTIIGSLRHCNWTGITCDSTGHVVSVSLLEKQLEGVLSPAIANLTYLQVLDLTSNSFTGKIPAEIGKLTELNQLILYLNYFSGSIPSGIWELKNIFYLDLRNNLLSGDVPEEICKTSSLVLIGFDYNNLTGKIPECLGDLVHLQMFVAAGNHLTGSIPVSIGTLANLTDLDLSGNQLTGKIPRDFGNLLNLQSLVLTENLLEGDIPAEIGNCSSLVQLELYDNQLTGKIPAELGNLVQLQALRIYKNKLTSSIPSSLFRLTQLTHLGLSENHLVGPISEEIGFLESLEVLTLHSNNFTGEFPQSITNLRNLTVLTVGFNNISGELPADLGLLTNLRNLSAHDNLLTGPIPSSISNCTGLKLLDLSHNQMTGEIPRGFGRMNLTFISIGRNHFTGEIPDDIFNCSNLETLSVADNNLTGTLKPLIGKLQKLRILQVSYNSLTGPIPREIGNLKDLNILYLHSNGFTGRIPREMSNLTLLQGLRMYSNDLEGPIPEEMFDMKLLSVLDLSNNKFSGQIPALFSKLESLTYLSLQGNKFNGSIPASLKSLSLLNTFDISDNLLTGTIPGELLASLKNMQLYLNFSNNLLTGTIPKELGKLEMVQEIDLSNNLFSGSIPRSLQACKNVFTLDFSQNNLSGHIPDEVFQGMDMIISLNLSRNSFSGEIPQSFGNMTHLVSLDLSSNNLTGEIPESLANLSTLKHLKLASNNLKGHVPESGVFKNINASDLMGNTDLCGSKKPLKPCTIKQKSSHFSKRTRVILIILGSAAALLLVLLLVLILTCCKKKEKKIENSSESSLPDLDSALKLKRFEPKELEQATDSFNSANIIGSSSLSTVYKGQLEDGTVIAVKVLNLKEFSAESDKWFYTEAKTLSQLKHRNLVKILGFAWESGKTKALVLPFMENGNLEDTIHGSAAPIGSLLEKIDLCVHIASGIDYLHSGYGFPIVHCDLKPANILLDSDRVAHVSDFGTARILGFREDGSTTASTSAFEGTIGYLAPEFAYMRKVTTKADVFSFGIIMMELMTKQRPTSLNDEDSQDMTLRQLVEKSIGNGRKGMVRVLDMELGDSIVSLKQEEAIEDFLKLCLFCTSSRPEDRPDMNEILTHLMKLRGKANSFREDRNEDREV
UniProt C0LGT6, residues 25-1031: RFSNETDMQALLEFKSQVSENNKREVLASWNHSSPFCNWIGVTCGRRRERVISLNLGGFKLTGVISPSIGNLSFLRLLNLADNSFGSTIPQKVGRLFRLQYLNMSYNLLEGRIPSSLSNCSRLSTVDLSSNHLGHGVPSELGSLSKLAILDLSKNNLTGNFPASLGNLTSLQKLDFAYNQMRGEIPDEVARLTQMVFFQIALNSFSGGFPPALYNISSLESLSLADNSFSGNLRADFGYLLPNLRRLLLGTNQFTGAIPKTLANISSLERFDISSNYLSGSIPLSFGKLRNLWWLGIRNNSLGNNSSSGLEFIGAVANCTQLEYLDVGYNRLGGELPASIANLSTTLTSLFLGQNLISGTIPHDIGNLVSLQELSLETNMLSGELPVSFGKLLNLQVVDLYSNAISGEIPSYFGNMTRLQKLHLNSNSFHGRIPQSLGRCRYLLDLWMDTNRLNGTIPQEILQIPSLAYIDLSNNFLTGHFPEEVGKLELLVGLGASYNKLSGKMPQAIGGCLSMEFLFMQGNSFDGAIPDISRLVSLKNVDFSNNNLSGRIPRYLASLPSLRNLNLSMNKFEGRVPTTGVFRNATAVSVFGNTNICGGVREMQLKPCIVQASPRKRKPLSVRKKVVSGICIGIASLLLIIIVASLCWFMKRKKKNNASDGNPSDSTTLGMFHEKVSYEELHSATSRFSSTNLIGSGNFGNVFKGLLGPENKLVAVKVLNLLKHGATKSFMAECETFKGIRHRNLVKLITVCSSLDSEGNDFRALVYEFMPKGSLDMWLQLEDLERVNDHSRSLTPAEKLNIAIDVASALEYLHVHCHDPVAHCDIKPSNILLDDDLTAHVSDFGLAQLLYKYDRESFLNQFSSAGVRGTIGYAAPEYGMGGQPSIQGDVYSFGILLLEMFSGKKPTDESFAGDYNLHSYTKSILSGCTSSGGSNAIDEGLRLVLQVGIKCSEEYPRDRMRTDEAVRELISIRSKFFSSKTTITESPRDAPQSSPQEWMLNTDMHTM

Key:
[1] = target: native FLS2 protein (Arabidopsis thaliana) (UniProt Q9FL28); assay: co-immunoprecipitation with GFP Trap beads from A. thaliana GRP7-GFP plants, anti-FLS2 immunoblot, with or without 1 µM flg22
[2] = target: native FLS2 protein (Arabidopsis thaliana) (UniProt Q9FL28); assay: co-immunoprecipitation with GFP Trap beads, Col-0 and HopU1 A. thaliana plants
[3] = target: native FLS2 protein (Arabidopsis thaliana) (UniProt Q9FL28); assay: co-immunoprecipitation with GFP Trap beads from A. thaliana plants with or without HopU1-HA
[4] = target: native FLS2 protein (Arabidopsis thaliana) (UniProt Q9FL28); assay: co-immunoprecipitation with GFP Trap beads, A. thaliana, with or without flg22 (panel D)
[5] = target: FLS2-3×myc (Arabidopsis thaliana) (UniProt Q9FL28); assay: co-immunoprecipitation with GFP Trap beads, N. benthamiana (panel B)
[6] = target: EFR-3×HA (Arabidopsis thaliana) (UniProt C0LGT6); assay: co-immunoprecipitation with GFP Trap beads, N. benthamiana
[7] = target: FLS2-3×myc (Arabidopsis thaliana) (UniProt Q9FL28); assay: as above
[8] = target: EFR-3×HA (Arabidopsis thaliana) (UniProt C0LGT6); assay: co-immunoprecipitation with GFP Trap beads, transient co-expression in N. benthamiana
[9] = target: FLS2-3×myc (Arabidopsis thaliana) (UniProt Q9FL28); assay: as above

Measured: binding

B1: GRP7-GFP (protein, not shown: large carriers)
chain: MASGDVEYRCFVGGLAWATDDRALETAFAQYGDVIDSKIINDRETGRSRGFGFVTFKDEKAMKDAIEGMNGQDLDGRSITVNEAQSRGSGGGGGHRGGGGGGYRSGGGGGYSGGGGSYGGGGGRREGGGGYSGGGGGYSSRGGGGGSYGGGRREGGGGYGGGEGGGYGGSGGGGGW
binds: [1] | [2] | [3] | [4]

B2: GRP7-eGFP (other)
chain: MASGDVEYRCFVGGLAWATDDRALETAFAQYGDVIDSKIINDRETGRSRGFGFVTFKDEKAMKDAIEGMNGQDLDGRSITVNEAQSRGSGGGGGHRGGGGGGYRSGGGGGYSGGGGSYGGGGGRREGGGGYSGGGGGYSSRGGGGGSYGGGRREGGGGYGGGEGGGYGGSGGGGGW
notes: Transiently expressed in N. benthamiana under the 35S promoter; also called 35S::GRP7-eGFP; not shown: C-terminal enhanced green fluorescent protein (eGFP) tag
binds: [5] | [6] | [7] | [8] | [9]
